Values of other authors as cited in article PMC7099768, “A positron emission tomography imaging study to confirm target engagement in the lungs of patients with idiopathic pulmonary fibrosis following a single dose of a novel inhaled αvβ6 integrin inhibitor” (Respiratory Research, 2020).

Details: healthy participants; potentially clinically relevant doses; cited from earlier work

Cc1cc(C)n(-c2cccc([C@H](CC(=O)O)CN3CC[C@@H](CCc4ccc5c(n4)NCCC5)C3)c2)n1 [GSK3008348, (S)-3-(3-(3,5-Dimethyl-1 H-pyrazol-1-yl)phenyl)-4-((R)-3-(2-(5,6,7,8-tetrahydro-1,8-naphthyridin-2-yl)ethyl)pyrrolidin-1-yl) butanoic acid]
Pharmacokinetic profile, dose proportionality: dose proportional
